# Reference: PubChem BioAssay AID504834 (National Center for Advancing Translational Sciences (NCATS), 2011)
# About 22,000 (6.9%) of roughly 320,000 compounds were called active. The inconclusive results got no clear call from the source; some entries with a clear call stand among them for comparison. The call rests on the fitted dose curve; in most records, active means well fitted inhibition curve with a large enough effect; inconclusive means small, poorly fitted or top-dose-only effect, or another doubt; inactive means no such curve, though single readings can be large or run the other way. Where the call is inconclusive, the potency comes from a doubtful curve fit.
# Assay: Primary qHTS for delayed death inhibitors of the malarial parasite plastid, 96 hour incubation
# Settings: P. falciparum luciferase reporter growth; series mostly up to 28.7 µM
# Outline: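 Cell-based qHTS: luciferase-tagged P. falciparum in erythrocytes (2% hematocrit, 0.05% parasitemia final) incubated with compounds for 96 hours, 37 C, 5% CO2; luciferase detection reagent then added and luminescence measured.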
# Potency means the concentration at half of the fitted maximal effect.
row,SMILES,Potency
1,CC(=O)c1ccc(N2CCN(C(=O)c3cc4c(-c5ccccc5F)nn(C)c4s3)CC2)cc1,"inconclusive: 18.5 µM [inhibitor, single point]"
2,O=C1NCCCN1Cc1ccc(F)cc1Cl,"inconclusive: 18.5 µM [inhibitor, single point]"
3,CN(CCC1CCOCC1)C(=O)CC1C(=O)NCCN1C/C=C/c1ccccc1 (stereo not given),inactive
4,CN(Cc1ccccc1)CC(O)COc1ccc(CNCc2cccnc2)cc1 (stereo not given),active: 8.28 µM
5,CC(C)c1ccc2[nH]c(O)c(N=NC(=O)c3cccc(S(=O)(=O)Nc4ccc(Cl)cc4)c3)c2c1,inactive
6,COCCCNC(=O)COc1ccc2oc3c(c2c1)CCCC3,inactive
7,CC(=O)N(C)c1ccc(OCC(O)Cn2c(C)nc3ccccc32)cc1 (stereo not given),"inconclusive: 18.5 µM [inhibitor, single point]"
8,COc1ccc(S(=O)(=O)N2CCN(C(=O)CCc3c[nH]c4ccccc34)CC2)cc1,"inconclusive: 9.28 µM [inhibitor, partial curve]"
9,COC(=O)C(NC(=O)CSc1nc(N)cc(=O)[nH]1)c1ccccc1 (stereo not given),inactive
10,O=C(c1ccc(Cl)cc1)N1CCN(CCc2ccccn2)CC1,inactive
11,Cc1ccc(C(CNS(=O)(=O)c2ccc(Cl)cc2)N2CCN(C)CC2)cc1 (stereo not given),inactive
12,Cc1c(C)c2ccc(OCC(=O)Nc3ccccn3)cc2oc1=O,inactive
13,Cc1nc2ccccc2c(=O)n1/N=C/c1ccccc1F,active: 9.28 µM
14,O=C(/C=C/c1ccco1)Nc1ccccc1N1CCOCC1,inactive
15,COc1cccc(C(=O)NNS(=O)(=O)c2ccc(C)cc2)c1,"inconclusive: 18.5 µM [inhibitor, single point]"
16,c1cn2cc(CN3CCOCC3)nc2s1,"inconclusive: 13.1 µM [inhibitor, partial curve, poor fit]"
17,c1ccc(Cn2c3ccccc3c3nnc(SCCN4CCCCC4)nc32)cc1,"inconclusive: 3.7 µM [inhibitor, partial curve]"
18,O=C(CCN1C(=O)/C(=C/c2ccc(F)cc2)SC1=S)NCCc1cnc[nH]1,"inconclusive: 16.5 µM [inhibitor, single point]"
19,Cc1ccc(S(=O)(=O)N(C)C)cc1NC(=O)COC(=O)CCNS(=O)(=O)c1ccccc1,inactive
20,COc1ccc(C2=NN(C(=O)CSc3nc(=O)n4cccc(C)c4n3)C(c3ccc(C)cc3)C2)cc1 (stereo not given),"inconclusive: 4.15 µM [inhibitor, single point]"
21,NC(=O)CC(NC(=O)c1ccc(Br)cc1)c1ccc(NC2CCCCCC2)c([N+](=O)[O-])c1 (stereo not given),inactive
22,CCCCn1c(SCC(=O)N2CCCc3ccccc32)nc2c1c(=O)n(C)c(=O)n2C,"inconclusive: 13.1 µM [inhibitor, single point]"
23,CCN(CC)Cc1nc2sc(C)c(C)c2c(=O)[nH]1,"inconclusive: 11.7 µM [inhibitor, single point]"
24,COc1ccccc1NC(=O)CN1CCN(CC(=O)Nc2ccc(Cl)c(C(F)(F)F)c2)CC1,"inconclusive: 18.5 µM [inhibitor, single point]"

# Among those listed so far, two contain two or more sulfur atoms:
row,SMILES,Potency
18,O=C(CCN1C(=O)/C(=C/c2ccc(F)cc2)SC1=S)NCCc1cnc[nH]1,"inconclusive: 16.5 µM [inhibitor, single point]"
19,Cc1ccc(S(=O)(=O)N(C)C)cc1NC(=O)COC(=O)CCNS(=O)(=O)c1ccccc1,inactive

# More results follow.

row,SMILES,Potency
1,CC(C)(C)NC(=O)CN(CCc1ccccc1)C(=O)c1csnn1,"inconclusive: 2.08 µM [inhibitor, single point]"
2,O=C(Nc1nc(-c2ccc(Cl)cc2)cs1)C1=COCCO1,"inconclusive: 18.5 µM [inhibitor, single point]"
3,Cc1c(Cl)cccc1NC(=O)CN1CCN(CCO)CC1,inactive
4,O=C1c2ccccc2C(=O)N1CC(O)Cn1nnc2ccccc21 (stereo not given),active: 9.28 µM
5,Cc1cccc(-n2nnc3cnn(C)c3c2=O)c1,"inconclusive: 0.0029 µM [inhibitor, full curve, poor fit]"
6,Cc1nn(-c2ccccc2)c2c1C(c1ccc(O)c(O)c1)N1C(=N2)C(Nc2ccccc2)=Nc2ccccc21 (stereo not given),active: 10.4 µM
7,Cc1cccc(OCCCC(=O)Nc2ccc(S(=O)(=O)Nc3nccs3)cc2)c1C,active: 3.7 µM
8,CCOc1ccc(NC(=O)CN(C)C(=O)Cc2ccsc2)cc1OCC,"inconclusive: 0.0738 µM [inhibitor, full curve, poor fit]"
9,Cc1cccc(COc2ccc(/C=N/NC(=O)c3nnn(-c4nonc4N)c3COc3ccc(F)cc3)cc2)c1,inactive
10,CCOc1cc(/C=N/NC(=O)c2ccc(CSc3nncn3C)cc2)ccc1OCC(=O)N1CCOCC1,active: 11.7 µM
11,Cn1c(Cn2c(=O)sc3ccccc32)nnc1SCc1cccnc1,"inconclusive: 0.329 µM [inhibitor, partial curve, poor fit]"
12,COC(=O)c1c(NC(=O)COC(=O)[C@@H](NS(=O)(=O)c2cccc(Cl)c2)C(C)C)sc2c1CCC2,"inconclusive: 10.4 µM [inhibitor, single point]"
13,COc1ccc2nc(/N=C(\N)NC(=O)Nc3ccccc3)nc(C)c2c1,inactive
14,Oc1ccc(Br)cc1C=Nc1cccn2cc(-c3ccccc3)nc12,"inconclusive: 16.5 µM [inhibitor, single point]"
15,NC(=O)c1cc(S(=O)(=O)NCc2cccc(Br)c2)cs1,"inconclusive: 0.0033 µM [inhibitor, full curve, poor fit]"
16,Cc1ccc(-c2nnc(Nc3ccc(OCC(N)=O)cc3)c3ccccc23)cc1S(N)(=O)=O,inactive
17,Cc1ccccc1C(=O)NNC(=O)CSc1nc(-c2ccccc2)cc(=O)[nH]1,"inconclusive: 13.1 µM [inhibitor, single point]"
18,Cc1cccc2c1-c1sc(C(=O)NCCCN3CCc4ccccc4C3)cc1CO2,"inconclusive: 10.4 µM [inhibitor, single point]"
19,CCOc1ccc(C(=O)O/N=C(\N)c2ccc([N+](=O)[O-])cc2)cc1OCC,"inconclusive: 9.28 µM [inhibitor, single point]"
20,O=C(NCCCN1CCOCC1)C1CCCN(S(=O)(=O)N2CCCCC2)C1 (stereo not given),"inconclusive: 8.28 µM [inhibitor, partial curve]"
21,Cc1cccc(NC(=O)COc2cccc3c2CCN(Cc2ccccc2)C3=O)c1C,"inconclusive: 7.38 µM [inhibitor, partial curve, poor fit]"
22,O=C(NN1C(=O)c2ccccc2NC1c1cccnc1)c1ccc([N+](=O)[O-])cc1 (stereo not given),"inconclusive: 18.5 µM [inhibitor, single point]"
23,COc1ccc(OCC(=O)N2CCC3(CC2)CC(=O)c2ccccc2O3)cc1,"inconclusive: 16.5 µM [inhibitor, single point]"
24,CSC1=C(C#N)C(c2ccccc2Cl)C(C(C)=O)=C(C)N1 (stereo not given),"inconclusive: 14.7 µM [inhibitor, partial curve, poor fit]"

row,SMILES,Potency
1,COc1ccc(C2(CNC(=O)c3cc([N+](=O)[O-])cc([N+](=O)[O-])c3)CCCC2)cc1OC,"inconclusive: 10.4 µM [inhibitor, single point]"
2,CCN(CC)c1ccc(/C=N/N(c2ccccc2)c2ccccc2)c(O)c1,active: 7.38 µM
3,CC(=O)c1ccc(NC(=O)CCc2nnc3ccc(NCc4ccco4)nn23)cc1,inactive
4,Cc1ccnc(NC(=O)COc2ccc(Cl)cc2)n1,inactive
5,COCCNC(=O)C(c1ccc(C)o1)N(Cc1ccc(OC)cc1)C(=O)Cn1nnc2ccccc21 (stereo not given),"inconclusive: 18.5 µM [inhibitor, partial curve, poor fit]"
6,CCOc1ccc(-c2nnn(CC(=O)NCc3ccco3)n2)cc1,"inconclusive: 11.7 µM [inhibitor, single point]"
7,CC(=O)c1ccccc1C(=O)N(C)C1CCCN(Cc2ccccc2F)C1 (stereo not given),"inconclusive: 0.104 µM [inhibitor, full curve, poor fit]"
8,CCc1ccc(NC(=O)CSc2n[nH]c(=O)n2C2CC2)cc1,inactive
9,O=C(NCCN1CCOCC1)c1cc(-c2cccc(O)c2)on1,inactive
10,COc1cc(Cn2c(=O)oc3ccc(C)cc32)ccc1OC(C)C,"inconclusive: 9.28 µM [inhibitor, partial curve, poor fit]"
11,COc1ccccc1NC(=O)c1cc([N+](=O)[O-])ccc1N1CCOCC1,"inconclusive: 1.85 µM [inhibitor, partial curve, poor fit]"
12,COc1cc(CNCc2ccccn2)ccc1OCc1ccc(Cl)cc1,inactive
13,CC(C)Nc1nnc(SCc2cc(=O)n3ccsc3n2)s1,"inconclusive: 18.5 µM [inhibitor, single point]"
14,O=[N+]([O-])c1ccc(N2CCCCCC2)c([N+](=O)[O-])c1,inactive
15,COc1cc(NC2c3ccccc3C(=O)N2Cc2ccccc2Cl)cc(OC)c1 (stereo not given),"inconclusive: 5.86 µM [inhibitor, partial curve, poor fit]"
16,Cc1c(C(=O)c2ccc(Cl)cc2Cl)cnc2cc3c(cc12)OCO3,active: 13.1 µM
17,O=c1c2ccccc2c2ccccc2c(=O)n1CC1CCCO1 (stereo not given),"inconclusive: 13.1 µM [inhibitor, partial curve, poor fit]"
18,c1ccc(-c2csc(-n3cnnn3)n2)cc1,inactive
19,CC(NC(=O)C12CC3CC(CC(C3)C1)C2)C(=O)N/N=C/C1=C(N2CCOCC2)C(=C\c2ccccc2)/CC1 (stereo not given),"inconclusive: 14.7 µM [inhibitor, single point]"
20,CCOC(=O)c1c(-c2ccc(OC)cc2)csc1/N=C/C1=C(O)CCCC1=O,"inconclusive: 9.28 µM [inhibitor, single point]"
21,O=C(N/N=C\C1CC=CCC1)c1ccc(Br)o1 (stereo not given),inactive
22,COCCN(C(=O)CC1CCCC1)c1c(N)n(CC(C)C)c(=O)[nH]c1=O,"inconclusive: 14.7 µM [inhibitor, partial curve, poor fit]"

# Part of the list above in order of heavy-atom count, largest number first.
row,SMILES,Potency
6,COCCCNC(=O)COc1ccc2oc3c(c2c1)CCCC3,inactive
8,CCc1ccc(NC(=O)CSc2n[nH]c(=O)n2C2CC2)cc1,inactive
15,NC(=O)c1cc(S(=O)(=O)NCc2cccc(Br)c2)cs1,"inconclusive: 0.0033 µM [inhibitor, full curve, poor fit]"
